Assay results: patent US20100113464A1, “NOVEL PYRIDAZINE DERIVATIVES” (SYNGENTA CROP PROTECTION, INC., priority 2006, published 2010)
Some results were stated once for a whole list of compounds, not compound by compound.

How the values were obtained:
Type in all cases: in vivo
Botrytis cinerea = assay: Botrytis cinerea/Tomato/Preventive (action against Botrytis on tomato); conditions: 200 ppm, preventive spray, tomato plants cv. Roter Gnom, assessed after 3 days incubation; untreated controls infected over 80%
Description: (§1) Botrytis cinerea/Tomato/Preventive (Action Against Botrytis on Tomato) 4 weeks old tomato plants cv. Roter Gnom are treated with the formulated test compound in a spray chamber. Two days after application tomato plants are inoculated by spraying a spore suspension on the test plants. After an incubation period of 3 days at 20° C. and 95% r. h. in a greenhouse the disease incidence is assessed.

Puccinia recondite = assay: Puccinia recondite/Wheat/Preventive (action against brown rust on wheat); conditions: 200 ppm, preventive spray, wheat plants cv. Arina, assessed 11 days after inoculation; untreated controls infected over 80%
Description: Puccinia recondite/Wheat/Preventive (Action Against Brown Rust on Wheat) 1 week old wheat plants cv. Arina are treated with the formulated test compound in a spray chamber. One day after application wheat plants are inoculated by spraying a spore suspension ([…] uredospores/ml) on the test plants. After an incubation period of 1 day at 20° C. and 95% r h. plants are kept for 10 days 20° C./18° C. (day/night) and 60% r.h. in a greenhouse. The disease incidence is assessed 11 days after inoculation.

[1] = test system: Pyrenophora teres (Helminthosporium teres); assay: Pyrenophora teres (Helminthosporium teres)/Barley/Preventive (action against net blotch on barley); conditions: 200 ppm, preventive spray, barley plants cv. Regina, assessed after 4 days incubation; untreated controls infected over 80%
Description: Pyrenophora teres (Helminthosporium teres)/Barley/Preventive (Action Against Net Blotch on Barley) 1-week-old barley plants cv. Regina are treated with the formulated test compound in a spray chamber. Two days after application barley plants are inoculated by spraying a spore suspension (2.6×10^4 conidia/ml) on the test plants. After an incubation period of 4 days at 20° C. and 95% r.h. the disease incidence is assessed.

Septoria tritici = assay: Septoria tritici/Wheat/Preventive (action against Septoria leaf spot on wheat); conditions: 200 ppm, preventive spray, wheat plants cv. Riband, assessed 16-18 days after inoculation; untreated controls infected over 80%
Description: Septoria tritici/Wheat/Preventive (Action Against Septoria Leaf Spot on Wheat) 2 weeks old wheat plants cv. Riband are treated with the formulated test compound in a spray chamber. One day after application wheat plants are inoculated by spraying a spore suspension (10^6 conidia/ml) on the test plants. After an incubation period of 1 day at 22° C./21° C. and 95% r.h. plants are kept at 22° C./21° C. and 70% r.h. in a greenhouse. The disease incidence is assessed 16-18 days after inoculation.

Uncinula necator = assay: Uncinula necator/Grape/Preventive (action against powdery mildew on grape); conditions: 200 ppm, preventive spray, grape seedlings cv. Gutedel, assessed after 7 days incubation; untreated controls infected over 80%
Description: Uncinula necator/Grape/Preventive (Action Against Powdery Mildew on Grape) 5 weeks old grape seedlings cv. Gutedel are treated with the formulated test compound in a spray chamber. One day after application grape plants are inoculated by shaking plants infected with grape powdery mildew above the test plants. After an incubation period of 7 days at 24° C./22° C. and 70% r.h. under a light regime of 14/10 h (light/dark) the disease incidence is assessed.

Alternaria solani = assay: Alternaria solani/Tomato/Preventive (action against Alternaria on tomato); conditions: 200 ppm, preventive spray, tomato plants cv. Roter Gnom, assessed after 4 days incubation; untreated controls infected over 80%
Description: as §1, with “Alternaria solani/Tomato/Preventive” for “Botrytis cinerea/Tomato/Preventive”, “Alternaria” for “Botrytis”, “4” for “3”, “22° C./18°” for “20°”, “r.h.” for “r. h.”

Cc1nnc(C)c(-c2c(F)cc(F)cc2F)c1-c1ccco1 [I.a.200]
at least 80%: inhibit fungal infestation (Botrytis cinerea) | inhibits fungal infestation (Puccinia recondite) | inhibit fungal infestation [1] | inhibits fungal infestation (Septoria tritici) | inhibit fungal infestation (Uncinula necator)

Cc1nnc(F)c(-c2c(F)cc(F)cc2F)c1-c1ccc(Cl)nc1 [I.ae.197]
at least 80%: inhibit fungal infestation (Alternaria solani) | inhibit fungal infestation (Botrytis cinerea) | inhibits fungal infestation (Puccinia recondite) | inhibit fungal infestation [1] | inhibits fungal infestation (Septoria tritici)

COc1nnc(C)c(-c2cc(Br)c(C)s2)c1-c1c(F)cc(F)cc1F [I.k.199]
at least 80%: inhibit fungal infestation (Alternaria solani) | inhibits fungal infestation (Puccinia recondite) | inhibit fungal infestation [1] | inhibits fungal infestation (Septoria tritici) | inhibit fungal infestation (Uncinula necator)

Cc1nnc(F)c(-c2c(F)cc(F)cc2F)c1-c1ccco1 [I.a.197]
at least 80%: inhibit fungal infestation (Botrytis cinerea) | inhibits fungal infestation (Puccinia recondite) | inhibits fungal infestation (Septoria tritici) | inhibit fungal infestation (Uncinula necator)
